This passage reports binding signal results from PMC7819943, “Rice protein-binding microarrays: a tool to detect cis-acting elements near promoter regions in rice”.

Sequences of proteins named here, by UniProt entry; tags and fusion partners are left off.
UniProt Q0JBA9, entry or part of it: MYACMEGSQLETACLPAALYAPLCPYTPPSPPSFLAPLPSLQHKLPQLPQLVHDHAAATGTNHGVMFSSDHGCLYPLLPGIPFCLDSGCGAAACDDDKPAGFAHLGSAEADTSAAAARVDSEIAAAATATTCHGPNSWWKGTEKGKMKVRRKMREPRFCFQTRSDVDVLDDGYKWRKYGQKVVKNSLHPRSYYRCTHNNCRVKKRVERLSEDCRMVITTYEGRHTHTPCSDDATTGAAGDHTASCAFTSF

The list shows a part of the results.

This assay deals with OsWRKY34 (Oryza sativa, UniProt Q0JBA9 1-250). The experiment in a line: protein-binding microarray (RPBM); PBS, 2% BSA, 51.3 ng/ul salmon testes DNA, 50 uM zinc acetate, 200 nM TF, 25 C, 1 h; high values mean tight binding. The conditions noted are these: protein: recombinant; tags: N-terminal polyhistidine and DsRed monomer fusion (pET32a); label: CyDye5-dUTP incorporated in the synthesized complementary strand; 3' TTTTT single-stranded linker to array surface; dsDNA, one strand shown. The essentials: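 Binding signal here means per-feature fluorescence intensity in arbitrary units. The values were read on an Axon 4000B scanner after a custom Agilent array, double-stranded by primer extension with Cy5-dUTP, was incubated with 200 nM protein at 25 °C for 1 h in PBS with 2% BSA, salmon testes DNA and 50 µM zinc acetate, then washed. The proteins were transcription factors with an N-terminal polyhistidine tag and DsRed, expressed in E. coli BL21-CodonPlus and purified on Ni–NTA.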
As to “CTAGAAAGAGGATTGCTCACTTCCACATACGTGCCGCTTTCGGAGTCACCTAGTGCAG”, the binding signal is 8660 fluorescence intensity (a.u.). For “AAGGTTGGTTGGTTGGTCGCCGTCGTTGGCCATGGCCATGCGGAGTCACCTAGTGCAG”, the binding signal was 8710 fluorescence intensity (a.u.). As to “GCACTCGCACTACACCCACCCACCCATCGATCCATCCATCCGGAGTCACCTAGTGCAG”, the binding signal is 9140 fluorescence intensity (a.u.). Under “ACCTGTAATTCAGTAGTACTTGTGTCCATTGATTTATGATCGGAGTCACCTAGTGCAG” stands 8900 fluorescence intensity (a.u.); under “GGTGCTTTGACTTTGTCATCGCGCGCGCGCATATATACTACGGAGTCACCTAGTGCAG”, 10500 fluorescence intensity (a.u.); under “TTCCTAATTGCTCTGTTTTAGCTGCCACAGGGAATCAACTCGGAGTCACCTAGTGCAG”, 8900 fluorescence intensity (a.u.).

“AATTCTAGTCATTGATGATTATTTTTGACTGCTTCACTTTCGGAGTCACCTAGTGCAG”: the binding signal is 10800 fluorescence intensity (a.u.).

In the case of “CAACAAGCTCCGTCTCTGCCACACCCACACTGTGCCGCAACGGAGTCACCTAGTGCAG”, the binding signal is 8480 fluorescence intensity (a.u.).

“TGTGATTTTTTTATGGCATTTGACATTTTTTTTGGCCGCTCGGAGTCACCTAGTGCAG”: the binding signal was 9810 fluorescence intensity (a.u.). Regarding “AATATTCGCTACCGTATTCGTTCCGTCTCGTATTCGCTCCCGGAGTCACCTAGTGCAG”, the binding signal was 10900 fluorescence intensity (a.u.). On to “CGAGCTGGAGTAGAGTTTGTTGGTTTTTCTTGTCTCATCTCGGAGTCACCTAGTGCAG”, for which the binding signal was 9620 fluorescence intensity (a.u.). In the case of “CCTCGCCTCTCTAATCACCCGCTTCGCTTCCCAATCTCTCCGGAGTCACCTAGTGCAG”, the binding signal is 12700 fluorescence intensity (a.u.). In the case of “AAGGTTATGTTTTCTTGCTAGCTAGTCTCTCCTGTTCAAACGGAGTCACCTAGTGCAG”, the binding signal is 10600 fluorescence intensity (a.u.). Under “GCGTCGGGGTCTAGGAAGGAGTTGTTGTAGGTGTCGAACTCGGAGTCACCTAGTGCAG” stands 8310 fluorescence intensity (a.u.); under “CGTCTCCTCGTCCTCATCCACGGCGAGTCCGCGTCATCCACGGAGTCACCTAGTGCAG”, 8400 fluorescence intensity (a.u.); under “CTGTATCGAGTTTAATTTATCCTTCATTTTTACTAACTTTCGGAGTCACCTAGTGCAG”, 8140 fluorescence intensity (a.u.). Take “TGGTTGTTTCTTGTTGTGGCCTAACTTATGTTTTATTCCACGGAGTCACCTAGTGCAG”: the binding signal was 9970 fluorescence intensity (a.u.).

On to “TTGATGCACTTTGTTTTCTAGGTTTTTTTTTTGGCAGCTACGGAGTCACCTAGTGCAG”, for which the binding signal was 9690 fluorescence intensity (a.u.). In the case of “GTAACTACGCTGACTTATTGCTGGAGTATTCTTTTTTTTTCGGAGTCACCTAGTGCAG”, the binding signal is 10000 fluorescence intensity (a.u.).

“TTTTTGTTTTACTTTGTCAAAGTTTTACACTTGTATTCCTCGGAGTCACCTAGTGCAG”: the binding signal is 8040 fluorescence intensity (a.u.).

“TTGCATATTTTGTAGAGTGATCTATCACATGTTAGTATATCGGAGTCACCTAGTGCAG”: the binding signal is 8100 fluorescence intensity (a.u.). “AGAGATTTCTTTCTTCTTCTTGATTTTTTTTGATTCGCTTCGGAGTCACCTAGTGCAG”: the binding signal is 10400 fluorescence intensity (a.u.). On to “GCGTCACTTTTACTCTACATTTTCTCCCATTTATAAACAACGGAGTCACCTAGTGCAG”, for which the binding signal was 11300 fluorescence intensity (a.u.).

For the sequence “GCCCGTAATCCATCTCTTGAACGGCCGTGTGTGTGTTCTTCGGAGTCACCTAGTGCAG”, the binding signal is 12400 fluorescence intensity (a.u.). For “TACATATATCGACGCAGACCCGCGACCCGTTAAGCCTATCCGGAGTCACCTAGTGCAG”, the binding signal was 9270 fluorescence intensity (a.u.). As to “GCCTGTACCTTTTGGTTATGCACTCTCTCAACAAAGTGTACGGAGTCACCTAGTGCAG”, the binding signal is 8490 fluorescence intensity (a.u.). With “GGATTTTTGACGGGGTTTTGCAACGGACTTGACTTGTTTACGGAGTCACCTAGTGCAG”, the binding signal is 8320 fluorescence intensity (a.u.). Under “CTTGTTTTTTTTTTCTTCTTTTTTCCTTGTCCCATGGCAACGGAGTCACCTAGTGCAG” stands 9830 fluorescence intensity (a.u.); under “CAAATACAATGATATTATTCCACTTTGTTCTTTTATGATGCGGAGTCACCTAGTGCAG”, 9120 fluorescence intensity (a.u.).

“ACAATTTCGATTTAGCTTAAATTTCATCTTTTGTAATATACGGAGTCACCTAGTGCAG”: the binding signal was 8590 fluorescence intensity (a.u.). “CCCTCTCTCCATCTGGTGCTCTCTATCTGAGGAATCCGAACGGAGTCACCTAGTGCAG”: the binding signal was 8660 fluorescence intensity (a.u.). Regarding “ATACTGTCTGCGTCTCCTATTGTTGGCAACGTCGTAATTACGGAGTCACCTAGTGCAG”, the binding signal was 12000 fluorescence intensity (a.u.). As for “GATGTTTTTGCGCTTAATTCAATTTGTACACAATTTTCACCGGAGTCACCTAGTGCAG”, the binding signal was 8360 fluorescence intensity (a.u.). The same measure for “GGTTCCAACTTCGTGTTGCATATTCTTAGGCCCGATCTTGCGGAGTCACCTAGTGCAG”: 8860 fluorescence intensity (a.u.); for “ACAAATTTGTAGCCCGCTGCTCTTCTCTCTCATCTTTTATCGGAGTCACCTAGTGCAG”: 9220 fluorescence intensity (a.u.); for “ACGCGCCGCAACGCAACTTCCATGGACGCATCTGGACCACCGGAGTCACCTAGTGCAG”: 8130 fluorescence intensity (a.u.). In the case of “CCTCTGCCATCATCGTCGTCATCCCATCCGGATTGCCACCCGGAGTCACCTAGTGCAG”, the binding signal was 9100 fluorescence intensity (a.u.).

Regarding “GCAATCTGTGTAATTAGTTATTTTTTCGTTTATATTTAATCGGAGTCACCTAGTGCAG”, the binding signal is 8490 fluorescence intensity (a.u.). As for “GCCTCCTCTCGTTCTCGTCAACTGTCTCCGCCTCTCCGGCCGGAGTCACCTAGTGCAG”, the binding signal is 9690 fluorescence intensity (a.u.). With “GCTTCGCTGATTCTCCATCTTCGCCGGATTAACGCACAAACGGAGTCACCTAGTGCAG”, the binding signal was 8950 fluorescence intensity (a.u.). On to “GGGGTCGTCGTGGCGGAGAAGGCGGCCGCGGCGCGTTCTCCGGAGTCACCTAGTGCAG”, for which the binding signal was 8730 fluorescence intensity (a.u.). “CGCCGCCATGGCCGCCGATCCGTGTCTTCCCTTGCGGCCTCGGAGTCACCTAGTGCAG”: the binding signal is 8110 fluorescence intensity (a.u.).
